The record followed here is publication PMC8615643.

The chains behind the UniProt entries cited, without tags or fusion partners. Residues count along the entry.
UniProt O00206, residues 657-839: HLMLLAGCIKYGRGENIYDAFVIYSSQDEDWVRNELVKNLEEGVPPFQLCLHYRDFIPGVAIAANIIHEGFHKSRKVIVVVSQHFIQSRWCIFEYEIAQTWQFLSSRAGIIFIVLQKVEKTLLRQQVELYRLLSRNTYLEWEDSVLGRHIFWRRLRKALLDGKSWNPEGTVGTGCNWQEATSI
UniProt P58753: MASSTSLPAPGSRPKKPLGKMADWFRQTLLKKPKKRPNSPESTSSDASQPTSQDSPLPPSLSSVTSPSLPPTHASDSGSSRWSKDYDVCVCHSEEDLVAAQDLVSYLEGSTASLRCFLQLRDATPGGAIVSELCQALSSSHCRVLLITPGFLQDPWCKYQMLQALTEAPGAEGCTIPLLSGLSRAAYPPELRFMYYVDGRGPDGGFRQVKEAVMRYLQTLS
UniProt Q86XR7: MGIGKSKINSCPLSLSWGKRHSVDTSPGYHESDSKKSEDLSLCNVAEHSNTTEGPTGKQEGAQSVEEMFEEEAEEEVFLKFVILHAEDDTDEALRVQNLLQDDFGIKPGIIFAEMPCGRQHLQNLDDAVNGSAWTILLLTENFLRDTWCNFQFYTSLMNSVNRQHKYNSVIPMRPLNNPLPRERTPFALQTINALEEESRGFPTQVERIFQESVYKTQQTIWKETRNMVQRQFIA
UniProt Q8IUC6: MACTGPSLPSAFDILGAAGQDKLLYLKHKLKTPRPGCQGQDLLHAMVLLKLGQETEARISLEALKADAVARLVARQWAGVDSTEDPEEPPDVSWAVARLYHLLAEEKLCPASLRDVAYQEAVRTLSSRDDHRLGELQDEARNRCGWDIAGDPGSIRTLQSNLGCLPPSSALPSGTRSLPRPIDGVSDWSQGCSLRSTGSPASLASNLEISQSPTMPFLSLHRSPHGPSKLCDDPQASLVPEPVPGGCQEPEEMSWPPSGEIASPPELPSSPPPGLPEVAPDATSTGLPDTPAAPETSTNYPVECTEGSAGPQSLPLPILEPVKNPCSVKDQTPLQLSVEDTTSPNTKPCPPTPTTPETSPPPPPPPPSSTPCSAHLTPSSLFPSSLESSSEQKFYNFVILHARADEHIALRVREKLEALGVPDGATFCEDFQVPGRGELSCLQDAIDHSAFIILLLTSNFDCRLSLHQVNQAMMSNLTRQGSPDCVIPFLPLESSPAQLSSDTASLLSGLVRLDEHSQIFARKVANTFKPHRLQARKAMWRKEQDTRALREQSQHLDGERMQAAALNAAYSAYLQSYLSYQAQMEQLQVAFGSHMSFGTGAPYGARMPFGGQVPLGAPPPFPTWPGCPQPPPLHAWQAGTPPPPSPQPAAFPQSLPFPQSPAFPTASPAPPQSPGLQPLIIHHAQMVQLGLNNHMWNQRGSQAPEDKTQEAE
UniProt Q99836: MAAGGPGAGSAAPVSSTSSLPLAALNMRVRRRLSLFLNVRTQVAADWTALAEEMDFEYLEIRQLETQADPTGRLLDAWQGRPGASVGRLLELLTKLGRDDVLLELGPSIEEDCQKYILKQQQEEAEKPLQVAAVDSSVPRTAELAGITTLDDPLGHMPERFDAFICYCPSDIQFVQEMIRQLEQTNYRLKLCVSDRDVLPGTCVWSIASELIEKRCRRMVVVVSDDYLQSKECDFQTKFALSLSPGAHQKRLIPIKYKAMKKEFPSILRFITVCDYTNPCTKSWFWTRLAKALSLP

Test [1] has as its target myr-GST-TLR4(TIR) (human) (UniProt O00206). In words: pull-down; GST fusions as bait, co-expressed in YPH499 yeast with the two adaptors of a pair (mCherry-MyD88 plus TIRAP-GFP, or TRIF-mCherry plus TRAM-GFP); lysates in 10% glycerol, 50 mM Tris/HCl pH 7.5, 0.1% NP40, 150 mM NaCl, 5 mM EDTA; Glutathione Sepharose beads overnight at 4 °C; Western blot with anti-mCherry, anti-GFP, anti-GST.

The next test has as its target GST-TLR4(TIR) (human) (UniProt O00206). Described as above.

These are yes or no findings as the source states them, for the method shown. In cells and extracts the contact can be indirect. Some binding calls cover weakened binding; strength is not graded here.

As to TIRAP-GFP (from UniProt P58753 1-221), the binding result (in test [1]; with GST-TLR4(TIR) (human)) was “binds” in each case.

TRAM-GFP (from UniProt Q86XR7 1-235): the binding entry (in test [1]; with GST-TLR4(TIR) (human)) was “binds” each time.

As for “TRIF-mCherry (from UniProt Q8IUC6 1-712)”, the binding entry (in test [1]; with GST-TLR4(TIR) (human)) was “binds” throughout.

On to “mCherry-MyD88 (from UniProt Q99836 1-296)”, for which the binding result (in test [1]; with GST-TLR4(TIR) (human)) was “binds” each time.
